These are yes or no findings as the source states them, for the method shown. Binding seen in cells or lysates may run through a third protein. Some binding calls cover weakened binding; strength is not graded here.
What was measured:
Assay in all cases: co-IP
[1] = target: T1, VPS39 (human (endogenous in 293T)) (UniProt Q96JC1)
T1 sequence: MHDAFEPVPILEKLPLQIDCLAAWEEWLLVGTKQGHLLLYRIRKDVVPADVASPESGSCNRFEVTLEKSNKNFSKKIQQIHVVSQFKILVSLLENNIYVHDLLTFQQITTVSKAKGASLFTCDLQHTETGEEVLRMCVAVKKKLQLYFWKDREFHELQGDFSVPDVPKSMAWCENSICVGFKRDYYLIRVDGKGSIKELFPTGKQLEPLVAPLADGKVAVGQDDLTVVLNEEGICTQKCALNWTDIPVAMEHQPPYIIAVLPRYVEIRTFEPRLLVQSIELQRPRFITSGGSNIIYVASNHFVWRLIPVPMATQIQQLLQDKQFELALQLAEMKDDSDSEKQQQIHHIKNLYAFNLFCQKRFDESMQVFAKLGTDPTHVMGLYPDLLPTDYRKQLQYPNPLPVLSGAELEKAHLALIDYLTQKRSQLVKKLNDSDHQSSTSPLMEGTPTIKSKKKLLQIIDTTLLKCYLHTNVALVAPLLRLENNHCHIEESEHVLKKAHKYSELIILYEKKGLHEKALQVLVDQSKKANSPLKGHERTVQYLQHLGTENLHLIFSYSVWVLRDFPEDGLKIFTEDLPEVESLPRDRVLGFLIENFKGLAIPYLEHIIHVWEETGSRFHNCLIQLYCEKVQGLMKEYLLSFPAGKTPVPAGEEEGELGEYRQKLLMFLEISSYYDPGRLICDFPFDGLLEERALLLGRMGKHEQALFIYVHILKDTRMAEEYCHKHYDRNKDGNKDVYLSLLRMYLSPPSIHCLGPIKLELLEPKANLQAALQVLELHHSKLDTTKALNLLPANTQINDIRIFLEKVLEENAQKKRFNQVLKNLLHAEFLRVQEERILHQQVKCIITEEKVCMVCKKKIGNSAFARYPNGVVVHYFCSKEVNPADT

[2] = target: T2, Calnexin (human (endogenous in 293T)) (UniProt P27824)
T2 sequence: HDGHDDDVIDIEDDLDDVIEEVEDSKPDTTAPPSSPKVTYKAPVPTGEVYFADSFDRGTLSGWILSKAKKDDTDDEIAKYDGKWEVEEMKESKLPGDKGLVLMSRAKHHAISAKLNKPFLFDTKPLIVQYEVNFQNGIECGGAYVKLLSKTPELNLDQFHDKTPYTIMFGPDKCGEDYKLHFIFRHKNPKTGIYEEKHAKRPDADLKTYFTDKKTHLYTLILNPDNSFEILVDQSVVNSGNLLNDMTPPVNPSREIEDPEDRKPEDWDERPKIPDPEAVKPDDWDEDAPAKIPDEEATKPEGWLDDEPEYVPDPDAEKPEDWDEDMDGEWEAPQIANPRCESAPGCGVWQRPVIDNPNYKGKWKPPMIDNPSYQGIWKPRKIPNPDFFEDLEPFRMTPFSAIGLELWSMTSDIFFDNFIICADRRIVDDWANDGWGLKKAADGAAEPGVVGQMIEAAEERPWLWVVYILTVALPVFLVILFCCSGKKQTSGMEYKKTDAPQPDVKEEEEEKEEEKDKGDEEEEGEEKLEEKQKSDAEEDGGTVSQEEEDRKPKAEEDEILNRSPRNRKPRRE

[3] = target: T3, ubiquitin E3 ligase TRIM59 (human (endogenous in 293T)) (UniProt Q8IWR1)
T3 sequence: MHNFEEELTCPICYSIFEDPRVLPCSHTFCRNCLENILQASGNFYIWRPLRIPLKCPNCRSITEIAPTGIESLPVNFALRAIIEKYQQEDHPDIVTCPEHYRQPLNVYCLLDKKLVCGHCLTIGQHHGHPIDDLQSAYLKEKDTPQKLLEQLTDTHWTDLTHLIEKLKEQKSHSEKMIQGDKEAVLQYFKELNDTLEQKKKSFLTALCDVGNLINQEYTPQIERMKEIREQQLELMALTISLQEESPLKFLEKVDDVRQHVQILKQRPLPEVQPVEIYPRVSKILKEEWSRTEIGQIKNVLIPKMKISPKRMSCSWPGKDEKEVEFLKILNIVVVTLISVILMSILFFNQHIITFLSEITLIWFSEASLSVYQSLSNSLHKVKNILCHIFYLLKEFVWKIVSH

[4] = target: SARS-CoV-2 ORF3a dDM6:∆aa171-173 mutant, HA-tagged (SARS-CoV-2) (UniProt P0DTC3)

SARS-CoV-2 ORF3a dDM6:∆aa171-173 mutant, HA-tagged (from UniProt P0DTC3 1-275)
binding [1]: no binding

SARS-CoV-2 ORF3a dG188 mutant, HA-tagged (from UniProt P0DTC3 1-275)
binding [2]: binds
binding [3]: binds

B1: VPS39 (protein, UniProt Q96JC1 1-886)
chain: T1 sequence
binding [4]: no binding

Reference: article PMC10790703 (mBio, 2023)
